In article PMC4838910 one finds binding data, which are given here for one substance.

Sequences of proteins named here, by UniProt entry; tags and fusion partners are left off. Residues count along the entry.
UniProt P28307, residues 22-151: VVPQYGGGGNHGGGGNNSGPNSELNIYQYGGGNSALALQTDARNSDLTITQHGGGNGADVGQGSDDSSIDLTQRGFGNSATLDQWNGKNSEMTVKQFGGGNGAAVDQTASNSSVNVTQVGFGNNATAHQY

The target in the test is T1, CsgC(9-110) with a C-terminal hexahistidine tag (E. coli) (UniProt P52107).
T1 sequence: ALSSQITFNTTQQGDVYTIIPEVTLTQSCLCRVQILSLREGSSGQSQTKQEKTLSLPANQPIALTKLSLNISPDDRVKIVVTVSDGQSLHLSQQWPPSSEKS
Kind of test: NMR titration; 2D 1H-15N NMR spectra of 20 uM CsgC or CsgH in the presence of a 3-fold excess of CsgA; both purified.

These are yes or no findings as the source states them, for the method shown. Some entries that bind do so weakly or less than the wild type. Where a sequence is shown, tags or fusion partners need not be part of it.

In the case of “CsgA (mature form, residues 22-151), E. coli (from UniProt P28307 22-151)”, the binding entry is given as “binds weakly”.
